No constants are given. Whether binding was seen depends on the method and setting. Some results given as binding are weak or reduced against the parent protein; the word gives no strength.

This assay concerns the target T1, NTSR1 on FaDu cells (human, UniProt P30989 1-418).
T1 construct: whole, on cells; Endogenous NTSR1 on the human FaDu cell line; also called NTSR1 expressing cells, FaDu
As to the kind of experiment: flow cytometry on FaDu cells. (Flow cytometry measures light scatter and fluorescence of single cells or particles in a stream.)

B1: humanized antibody 7C3 HuHd (antibody, V domains shown)
VH: QVQLVQSGAEVKKPGASVKVSCKASGYTFTSSWIHWVRQAPGQGLEWMGQIRPNSGNTYYNEKFKVRVTMTRDTSTSTVYMELSSLRSEDTAVYYCARYYYGFDYWGQGTLVTVSS
VL: DIQMTQSPSSLSASVGDRVTITCRSSQSIVHSNGNTYLEWYQQKPGKAPKLLIYKVSNRFSGVPSRFSGSGSGTDFTLTISSLQPEDFATYYCFQGSHLPWTFGQGTKVEIK
notes: Full-length antibody from the human Fc vectors
B1: the binding entry is given as “binds”.

The values above are taken from patent publication US20240218062A1 (DEVELOPMENT CENTER FOR BIOTECHNOLOGY, published 2024).
